{
  "sequences": {"note": "Protein sequences, listed by entry. Tags and fused reporters are not part of them.", "UniProt Q14191, whole entry, looked up": "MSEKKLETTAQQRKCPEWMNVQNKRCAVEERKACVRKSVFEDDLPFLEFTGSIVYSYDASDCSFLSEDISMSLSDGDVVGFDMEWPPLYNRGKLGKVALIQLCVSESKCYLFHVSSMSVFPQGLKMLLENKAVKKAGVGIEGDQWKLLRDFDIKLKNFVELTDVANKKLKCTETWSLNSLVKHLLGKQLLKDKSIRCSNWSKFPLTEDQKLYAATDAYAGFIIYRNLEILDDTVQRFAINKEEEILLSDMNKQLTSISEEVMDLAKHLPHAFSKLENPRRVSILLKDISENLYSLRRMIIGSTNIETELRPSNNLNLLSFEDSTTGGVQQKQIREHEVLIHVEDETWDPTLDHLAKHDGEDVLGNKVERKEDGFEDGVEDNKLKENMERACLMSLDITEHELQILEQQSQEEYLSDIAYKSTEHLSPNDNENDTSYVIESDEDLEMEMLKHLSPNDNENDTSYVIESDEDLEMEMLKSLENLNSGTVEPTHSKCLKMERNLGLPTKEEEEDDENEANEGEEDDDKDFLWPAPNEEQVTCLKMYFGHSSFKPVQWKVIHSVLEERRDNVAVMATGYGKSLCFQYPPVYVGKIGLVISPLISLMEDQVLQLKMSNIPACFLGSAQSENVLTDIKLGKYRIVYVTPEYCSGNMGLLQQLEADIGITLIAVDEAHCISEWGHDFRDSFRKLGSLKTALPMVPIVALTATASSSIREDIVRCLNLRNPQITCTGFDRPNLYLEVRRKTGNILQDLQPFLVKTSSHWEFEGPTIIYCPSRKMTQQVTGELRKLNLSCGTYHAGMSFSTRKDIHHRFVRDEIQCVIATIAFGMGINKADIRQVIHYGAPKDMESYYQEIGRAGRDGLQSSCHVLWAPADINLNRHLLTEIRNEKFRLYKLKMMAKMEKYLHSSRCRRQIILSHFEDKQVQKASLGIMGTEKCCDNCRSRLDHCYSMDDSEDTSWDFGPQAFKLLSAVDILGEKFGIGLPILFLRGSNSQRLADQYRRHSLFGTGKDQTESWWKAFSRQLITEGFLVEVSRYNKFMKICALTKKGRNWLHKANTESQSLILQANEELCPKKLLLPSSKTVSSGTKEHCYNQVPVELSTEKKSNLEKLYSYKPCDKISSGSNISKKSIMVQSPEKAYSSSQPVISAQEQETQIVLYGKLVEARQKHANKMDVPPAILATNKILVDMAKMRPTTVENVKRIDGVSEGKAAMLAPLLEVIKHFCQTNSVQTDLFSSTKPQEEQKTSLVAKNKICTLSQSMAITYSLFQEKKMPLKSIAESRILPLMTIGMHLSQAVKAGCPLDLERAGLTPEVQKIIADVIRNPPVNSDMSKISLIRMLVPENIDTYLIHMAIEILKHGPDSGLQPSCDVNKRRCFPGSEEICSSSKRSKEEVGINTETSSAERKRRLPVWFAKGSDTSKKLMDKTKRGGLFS"},
  "source": "PubChem BioAssay AID651768",
  "about": "(National Center for Advancing Translational Sciences (NCATS), 2012)",
  "note": "About 1,700 (0.47%) of roughly 360,000 compounds were called active. This list was built around the results that the source calls inconclusive (neither active nor inactive); the mix of calls is not that of the screen. Calls follow the shape of the dose curve; as a rule, active = well fitted inhibition curve with a large enough effect; inconclusive = small, poorly fitted or top-dose-only effect; inactive = no such curve, though single readings can be large or run the other way. A potency beside an inconclusive call is a rough fit, not a confirmed value. Potency is read from the fitted curve at half-maximal effect.",
  "data": [
    {"target": "Bifunctional 3'-5' exonuclease/ATP-dependent helicase WRN (Homo sapiens) (UniProt Q14191)", "assay": "qHTS for Inhibitors of WRN Helicase; also: nearly all actives have a fitted effect of over 55% in size", "details": "WRN helicase unwinding, fluorescent forked duplex, kinetic; series mostly up to 114 µM", "in_short": "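Kinetic fluorescence helicase assay: unwinding of a quenched forked DNA duplex (100 nM final) with 2 mM ATP final raises red fluorescence (525/598 nm). Compounds sat 15 min at room temperature with 20 nM WRN beforehand.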", "values": [
      {"smiles": "COCCNc1nc(NCc2cccc(OC)c2)c2sc(-c3ccccc3)cc2n1", "Potency": "inactive"},
      {"smiles": "CCN(CC)c1ccc(C=C2SC(=S)NC2=O)cc1", "Potency": "active: 50.1 µM"},
      {"smiles": "O=C(NN=Cc1ccc(F)cc1)c1ccccc1NS(=O)(=O)c1cccs1", "Potency": "inactive"},
      {"smiles": "CCOC(=O)c1cnn(-c2ccc(NS(=O)(=O)c3ccc(Cl)cc3)cc2)c1C(F)(F)F", "Potency": "inconclusive: 11.2 µM [inhibitor, full curve]"},
      {"smiles": "Cc1c(CCC(=O)O)c(=O)oc2c(C)c3occ(-c4ccc(Br)cc4)c3cc12", "Potency": "active: 63.1 µM"},
      {"smiles": "CCCn1c(N)c(C(=O)CSc2nc(C3CC3)n(-c3ccccc3)n2)c(=O)[nH]c1=O", "Potency": "inconclusive: 50.1 µM [inhibitor, partial curve, poor fit]"},
      {"smiles": "O=C(NNC(=O)C12CC3CC(CC(O)(C3)C1)C2)c1csc(N2CCOCC2)n1", "Potency": "inconclusive: 79.4 µM [inhibitor, partial curve]"},
      {"smiles": "Cc1ccc(N(CC(=O)N=Nc2c(O)[nH]c3ccccc23)S(C)(=O)=O)c(C)c1", "Potency": "inconclusive: 31.6 µM [inhibitor, single point]"},
      {"smiles": "COc1cc(NC(=O)c2ccccc2)c(OC)cc1NC(=O)Cc1cccs1", "Potency": "inconclusive: 50.1 µM [inhibitor, partial curve]"},
      {"smiles": "C=C(CN(C)C)C(=O)c1cc(C)ccc1C", "Potency": "active: 22.4 µM"},
      {"smiles": "CC(=O)CSc1nc2ccccc2s1", "Potency": "inactive"},
      {"smiles": "O=C(O)C/C(=C\\c1ccc(N2CCOCC2)c([N+](=O)[O-])c1)c1nc2ccccc2s1", "Potency": "inconclusive: 39.8 µM [inhibitor, partial curve]"},
      {"smiles": "Nc1nc(Nc2cccc(F)c2)nc(NCCO)c1[N+](=O)[O-]", "Potency": "inconclusive: 2.82 µM [inhibitor, full curve, poor fit]"},
      {"smiles": "CN(Cc1nc2ccccc2n1C)c1ccccc1", "Potency": "inconclusive: 10 µM [inhibitor, full curve]"},
      {"smiles": "CCCCOP(=O)(OCCCC)C(Nc1ccc(C(=O)OCC)cc1)c1ccncc1", "note": "(stereo not given)", "Potency": "inactive"},
      {"smiles": "COc1cccc(C(=O)/C=C/Nc2ccc(S(=O)(=O)Nc3onc(C)c3C)cc2)c1", "Potency": "inconclusive: 44.7 µM [inhibitor, partial curve]"},
      {"smiles": "O=C(Nc1cccc(F)c1)C1CCCN1C(=O)OCc1ccccc1", "note": "(stereo not given)", "Potency": "inactive"},
      {"smiles": "O=C1N(Cc2ccccc2)CC2(Br)COCOC12O", "note": "(stereo not given)", "Potency": "active: 17.8 µM"},
      {"smiles": "COc1ccc(-c2nn(-c3ccccc3)cc2/C=C(\\CC(=O)O)c2nc3ccccc3s2)cc1OC", "Potency": "inconclusive: 50.1 µM [inhibitor, partial curve]"},
      {"smiles": "CC(C)CN(C(=O)CSc1n[nH]c(-c2cccs2)n1)C1CCS(=O)(=O)C1", "note": "(stereo not given)", "Potency": "inconclusive: 12.6 µM [inhibitor, single point]"}
    ]}
  ]
}
